Values from PubChem BioAssay AID1259279 (Sanger Institute, 2017)

Assay: 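Kinase-wide knock-down seeking synergy with BYL719, cetuximab or trametinib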 (primary screen)
Cell system: LS180 human colorectal cancer cells
Reagent: siRNA pool against human genes
Treatment: anchor drug BYL719 at 1 µM, cetuximab at 5 µg/ml or trametinib at 10 nM, or DMSO vehicle only
Measured: 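Cell viability versus a non-targeting pool, as a fraction and as a robust z-score from replicate means, plus a synergy score for each of three drugs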
Scale: viability z-score, no drug: higher = more viable cells after knock-down; viability, no drug: higher = more viable cells; synergy score with BYL719 and synergy score with cetuximab and synergy score with trametinib: higher = stronger synthetic lethal synergy with drug
Active means: 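a knock-down is called active, meaning essential, if its viability z-score in vehicle alone falls below -3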
Meaning of the calls: active = essential (knock-down alone cuts viability); inactive = no change without drug
This is one part, drawn at random, of 794 reagents. In the full data, 11 (1.4%) were called active. 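Calls reflect knock-down alone in the vehicle arm, not drug synergy.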 No viability above 1 is reported: the scale is capped. Not given: the amount of reagent, the time to read-out.

gene knocked down,"viability z-score, no drug","viability, no drug (fraction)",synergy score with BYL719,synergy score with cetuximab,synergy score with trametinib,Outcome
CDKN1B,0.706,0.983,-0.000675,-0.0383,-0.0654,inactive
DYRK4,-2.87,0.593,-0.189,-0.0719,-0.0651,inactive
ERN1,0.34,0.943,0.129,-0.0511,0.184,inactive
NRBP2,0.86,1,0.0285,0.0792,0.137,inactive
ACVR1B,-0.746,0.825,-0.194,-0.0805,-0.0261,inactive
BMPR2,-0.3,0.874,0.0537,-0.0463,-0.00431,inactive
WNK4,-0.424,0.86,-0.196,-0.143,0.0246,inactive
LTK,-0.73,0.827,-0.169,-0.0238,-0.06,inactive
LMBR1,0.86,1,-0.131,-0.166,0.0482,inactive
EGFR,0.486,0.959,-0.052,0.0353,-0.0493,inactive
SIK2,0.0153,0.908,-0.076,-0.0621,-0.0408,inactive
RFK,0.191,0.927,-0.066,-0.0969,-0.265,inactive
PIP4K2C,-1.13,0.783,-0.123,-0.0679,0.0223,inactive
PFKFB1,-1.85,0.704,-0.0322,-0.0974,0.0046,inactive
DGKB,-2.21,0.665,0.0223,-0.0119,0.0347,inactive
SNRK,0.561,0.967,0.151,0.213,0.16,inactive
CDK4,0.453,0.956,-0.00398,-0.0398,-0.137,inactive
NR2F2,-0.918,0.806,0.0022,-0.0686,0.0519,inactive
CDKL5,0.383,0.948,-0.133,-0.209,-0.131,inactive
DYRK3,-0.48,0.854,-0.0429,-0.0618,0.0891,inactive

3 entries already listed, arranged by “synergy score with cetuximab”, descending:
gene knocked down,"viability z-score, no drug","viability, no drug (fraction)",synergy score with BYL719,synergy score with cetuximab,synergy score with trametinib,Outcome
CDK4,0.453,0.956,-0.00398,-0.0398,-0.137,inactive
NR2F2,-0.918,0.806,0.0022,-0.0686,0.0519,inactive
CDKL5,0.383,0.948,-0.133,-0.209,-0.131,inactive
